Laboratory results as given in paper PMC7819943, “Rice protein-binding microarrays: a tool to detect cis-acting elements near promoter regions in rice”.
Some of the results follow.

Chains of the proteins cited; added tags and fusions are not shown.
UniProt Q0JBA9, entry or part of it: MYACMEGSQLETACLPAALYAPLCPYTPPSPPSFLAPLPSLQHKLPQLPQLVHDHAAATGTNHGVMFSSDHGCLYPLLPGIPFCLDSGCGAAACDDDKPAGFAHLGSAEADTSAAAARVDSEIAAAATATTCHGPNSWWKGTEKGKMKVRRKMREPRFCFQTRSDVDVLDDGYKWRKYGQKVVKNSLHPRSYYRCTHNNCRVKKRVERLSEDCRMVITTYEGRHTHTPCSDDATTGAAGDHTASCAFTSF

molecular target: OsWRKY34 (Oryza sativa, UniProt Q0JBA9 1-250); experiment: protein-binding microarray (RPBM); PBS, 2% BSA, 51.3 ng/ul salmon testes DNA, 50 uM zinc acetate, 200 nM TF, 25 C, 1 h; high values mean tight binding; settings: protein: recombinant; tags: N-terminal polyhistidine and DsRed monomer fusion (pET32a); label: CyDye5-dUTP incorporated in the synthesized complementary strand; 3' TTTTT single-stranded linker to array surface; dsDNA, one strand shown
In short: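 Transcription factors were each fused at the N-terminus to a polyhistidine tag plus DsRed and expressed in E. coli BL21-CodonPlus before Ni–NTA purification. Binding to a double-stranded custom Agilent array was carried out with 200 nM protein at 25 °C for 1 h in PBS, 2% BSA, salmon testes DNA and 50 µM zinc acetate. The binding signal is per-feature fluorescence intensity, in arbitrary units, on an Axon 4000B scanner.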

Row | Sequence | binding signal
1 | CAGGCATGTCCAGTATAGGTGTTATTATATTTTATTATTACGGAGTCACCTAGTGCAG | 8910 fluorescence intensity (a.u.)
2 | CAGCAATTCATTGTGCAATCACCATCGTCAATCGTGTCGTCGGAGTCACCTAGTGCAG | 8130 fluorescence intensity (a.u.)
3 | TCCTTTGCCTTCAAAGGCATCGTGCCTTTGTCACTTACATCGGAGTCACCTAGTGCAG | 8820 fluorescence intensity (a.u.)
4 | TTTGCCCATTTTATTCCCTTGCGTCATCCATTTACTGCTTCGGAGTCACCTAGTGCAG | 9470 fluorescence intensity (a.u.)
5 | TAACTGCGTTGACATGTCGCCTTGCTATACTCACATTCTTCGGAGTCACCTAGTGCAG | 9470 fluorescence intensity (a.u.)
6 | ACATTCCTAATTAATTCGGTTTTTCGCCATTGGTGCATGTCGGAGTCACCTAGTGCAG | 8040 fluorescence intensity (a.u.)
7 | ACTGGACACCATAGCTTCTTCGCCCGTCGTTTGCCTATCTCGGAGTCACCTAGTGCAG | 11600 fluorescence intensity (a.u.)
8 | TGCATTTCGATCACCTCGTCCTTCGTGGCGACATACCTTTCGGAGTCACCTAGTGCAG | 8620 fluorescence intensity (a.u.)
9 | GCTCACGGCTCACCTATAAATAAGCAGCTTTGCCTCTCACCGGAGTCACCTAGTGCAG | 8400 fluorescence intensity (a.u.)
10 | AAATAATATATTGTACCTAGGAGTTATTCCCTCCGTCCCACGGAGTCACCTAGTGCAG | 8870 fluorescence intensity (a.u.)
11 | AGGAGAGATGAGTTAGGGTGTGTTTAGTTCTTTGGGCGTACGGAGTCACCTAGTGCAG | 12100 fluorescence intensity (a.u.)
12 | TGAGCAACAACCTCCTCTCCGGTGCAATTCCGGCGTTCTTCGGAGTCACCTAGTGCAG | 8630 fluorescence intensity (a.u.)
13 | TTTATTGATTTGTTTCTCTGCTGTTTTCTTTCCAGCAAGGCGGAGTCACCTAGTGCAG | 9300 fluorescence intensity (a.u.)
14 | CGGTGATCTCGCCGCCTCGACCATCCGCCCGCGAAATCCGCGGAGTCACCTAGTGCAG | 8270 fluorescence intensity (a.u.)
15 | CATCCATCCACCCATAGCTATCTCTAGCTAGCTTGCACATCGGAGTCACCTAGTGCAG | 8590 fluorescence intensity (a.u.)
16 | CTAGCTCGAGCTCCAATCTCTTGCTCACTCTCTGCTCAGTCGGAGTCACCTAGTGCAG | 9230 fluorescence intensity (a.u.)
17 | GCCGCCTCGCCGTCGCTGTCCACTCACCGACCCGCCGCCGCGGAGTCACCTAGTGCAG | 8020 fluorescence intensity (a.u.)
18 | CCTTGCCCTATCTTTGTCTTAGCGCTGTGCATCAGTGTTACGGAGTCACCTAGTGCAG | 8510 fluorescence intensity (a.u.)
19 | TGAAAAACCGTGTCAGTGCCGAGTCTCAAGCCTAGCCGTCCGGAGTCACCTAGTGCAG | 8080 fluorescence intensity (a.u.)
20 | ATTTTGGTGATTTTTGGAACATACTATTTCCGTGATGAGTCGGAGTCACCTAGTGCAG | 9350 fluorescence intensity (a.u.)
21 | CCGCCATTGACGCCCAAATCTCCATGGATCAAGAGGTTCTCGGAGTCACCTAGTGCAG | 8160 fluorescence intensity (a.u.)
22 | TCTCATCATCAGAGTATGGTTTGCCCAGTTCCTCATTGACCGGAGTCACCTAGTGCAG | 8680 fluorescence intensity (a.u.)
23 | CCTGACGTGCTTCACCTCACCTGCTCATTTTTTATTTCCCCGGAGTCACCTAGTGCAG | 17300 fluorescence intensity (a.u.)

2 records picked at random from the list so far:
Row | Sequence | binding signal
6 | ACATTCCTAATTAATTCGGTTTTTCGCCATTGGTGCATGTCGGAGTCACCTAGTGCAG | 8040 fluorescence intensity (a.u.)
16 | CTAGCTCGAGCTCCAATCTCTTGCTCACTCTCTGCTCAGTCGGAGTCACCTAGTGCAG | 9230 fluorescence intensity (a.u.)
